# Reference: PubChem BioAssay AID651647 (Sanford-Burnham Center for Chemical Genomics, 2012)
# The list shows a part of the results. Some tests of the compounds listed are not included; inactive here does not mean inactive elsewhere.
# Test: MT1-MMP activation inhibitors, cellular reporter – HT1080 RFP-PRO-GFP cells, GFP/RFP fluorescence, primary screen (AID 651647)
# Conditions: GFP/RFP ratio fluorescence, overnight, RFP expression control read, at 20 µM
# Procedure, shortened: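 Assay system: HT1080 RFP-PRO-GFP cells. Benchmarks: DMSO vehicle wells and RFP-L50D-GFP reporter cell wells. Times: overnight cell settling, then overnight compound exposure, 37 °C, 5% CO2. Compound: 20 µM single dose, 1% DMSO. Read-out basis: GFP/RFP fluorescence ratio.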
row,SMILES,RFP signal change
1,COc1ccc(C(=O)NCC2(N(C)C)CCCCC2)cc1,1.12%
2,CCN1CCCC(OC(=O)C2(O)c3ccccc3C=Cc3ccccc32)C1 (stereo unspecified),-0.349%
3,Cc1cc(C(=O)NCC2(N3CCCCC3)CCCCC2)ccc1[N+](=O)[O-],1.09%
4,O=C(NCC1(N2CCCCC2)CCCCC1)c1cccc(Br)c1,-0.637%
5,C=CCN1CCN(CCOC(=O)C(O)(c2ccccc2)c2ccccc2)CC1,6.23%
6,O=C(NCC1(N2CCCCC2)CCCCC1)c1cc(F)c(F)cc1Cl,2.86%
7,Cc1ccccc1C(=O)NCC1(N2CCCCC2)CCCCC1,-0.253%
8,CN(C)c1ccc(C(=O)NCC2(N(C)C)CCCCC2)cc1,1.59%
9,CN(C)C1CCCC1OC(=O)C(O)(c1ccccc1)c1ccccc1 (stereo unspecified),1.06%
10,Cc1ccc(C(=O)NCC2(N3CCCCC3)CCCCC2)cc1,5.07%
11,CCN(CC)CC(C)C(C)OC(=O)C(O)(c1ccccc1)c1ccccc1 (stereo unspecified),-0.0943%
12,COc1cc(SC)ccc1C(=O)NCC1(N(C)C)CCCCC1,-0.0126%
13,CC(C)N1C(=O)CC2(CCN(CCOC(=O)C(O)(c3ccccc3)c3ccccc3)CC2)C1=O,0.705%
14,CN1[C@@H]2CC[C@H]1CC(OC(=O)C(O)(c1ccccc1)c1ccccc1)C2 (stereo partly specified),-6.86%
15,O=C(NCC1(N2CCCCC2)CCCCC1)c1cc([N+](=O)[O-])ccc1Cl,-1.63%
16,CC(C)Oc1ccc(C(=O)NCC2(N(C)C)CCCCC2)cc1,-3.07%
17,O=C(OCCN1CCCC1)C(O)(c1ccccc1)c1ccccc1,0.362%
18,CN(C)c1cccc(C(=O)NCC2(N(C)C)CCCCC2)c1,8.48%
19,C=C(C)C#CC(O)(C(=O)OC1CCN(C)CC1)c1ccccc1 (stereo unspecified),4.78%
20,COc1ccc(Br)c(C(=O)NCC2(N3CCCCC3)CCCCC2)c1,1.09%
21,O=C(OC1CN2CCC1CC2)C(CO)(c1ccccc1)c1ccccc1 (stereo unspecified),-11.3%
22,O=C(NCC1(N2CCCCC2)CCCCC1)c1cccc(Cl)c1,3.56%
23,COc1cccc(C(=O)NCC2(N3CCCCC3)CCCCC2)c1,1.82%
24,COc1ccc(Cl)cc1C(=O)NCC1(N(C)C)CCCCC1,-2.03%
25,COc1cc(C(=O)NCC2(N(C)C)CCCCC2)c([N+](=O)[O-])cc1OC,3.54%
26,CN(C)C1(CNC(=O)c2ccc(Br)cc2)CCCCC1,3.45%
